Source: patent publication US20240374734A1, “Immunomodulatory Combinations of Antigen and Drug-Lipid Conjugate” (Integrated Nanotherapeutics Inc., priority 2021, published 2024)
At least one compound was matched to its structure with a doubt left.

Legend:
[1] = tested on: Ova specific IgG1 antibodies; experiment: Anti-Ova IgG1 ELISA of serum of mice injected with LNPs; type: in vivo, Female C57BL/6J mice; conditions: ip once biweekly, 3 injections, 10 μg mRNA/mouse; serum 2 weeks after final injection
[2] = Characterisation of prodrug LNP: particle size, PdI, prodrug entrapment; type: physicochemical; conditions: for % Entrap (Dex/Calcitriol): Dex: Table 2, dexamethasone prodrug; for PdI / Size: Table 2, prodrug LNP
Protocol: Lipid conjugates (prodrugs) were dissolved in ethanol, isopropanol, DMSO or THF. LNP were prepared by rapidly mixing DSPC or DMPC, cholesterol, prodrugs, and PEG-DSPE (in a molar ratio of 49/40/10/1) with phosphate-buffered saline (PBS) using a cross-junction mixer. Formulations were dialyzed against PBS to remove residual ethanol. In cases where a peptide antigen, such as ovalbumin peptide […] (OVA), was co-formulated within the LNP, the peptide is dissolved in PBS and rapidly mixed with the lipid phase. Dialysis or tangential flow filtration was used to remove all unentrapped peptide.
(§1) The physiochemical properties of the LNPs prepared as described above were subsequently characterized. Particle size was determined by dynamic light scattering using a Malvern Zetasizer Nano ZS (Malvern, UK) following buffer exchange into phosphate-buffered saline. Number-weighted size and distribution data was used. Lipid concentrations were determined by measuring total cholesterol using the Cholesterol E enzymatic assay kit from Wako Chemicals USA (Richmond, VA). mRNA entrapment was determined using a modified Quanti-iT Ribogreen assay (ThermoFisher, Waltham, MA). LNP-mRNA systems were incubated in the presence or absence of 1% Triton X-100 (Sigma-Aldrich, St. Louis, MO). Fluorescence intensities (Ex/Em: 480/520 nm) were compare to determine % mRNA entrapment.

[3] = tested on: Ova specific CD4+ T cells (OT-II T cells); experiment: OT-II CD4+ T cell proliferation after BMDC co-treatment with LNP-mRNA and prodrug-LNP; type: cell-based, mice; conditions: BMDCs treated 48 hours with LNP-mRNA only or LNP-mRNA and separate prodrug LNP
Protocol: The mRNA used in this example is modified to minimize immune stimulation and encodes for full length Ovalbumin (Ova) protein (Trilink, L-7210). Bone marrow-derived dendritic cells (BMDCs) were prepared as previously described and co-cultured with isolated CD4+ T cells (OT-II T cells) that specifically recognize the Ova323-339 epitope loaded in H-2b MHC Class II (C57BL/6 haplotype). Proliferation was assessed based on CFSE dilution by flow cytometry. BMDCs pulsed for 4 hours with free Ova323-339 peptide (0.1 μg/mL) served as an antigen-loaded control (Free Ova Peptide), and untreated BMDCs served as the No Antigen control. 48 hours prior to co-culturing, BMDCs were treated with LNP-mRNA only or LNP-mRNA and LNP containing dexamethasone (D034) or calcitriol (D053) prodrugs.

[4] = Characterisation of LNP co-loaded with mRNA and prodrugs: Z-Ave, PDI, mRNA and prodrug entrapment; type: physicochemical
Protocol: To prepare LNPs that contain mRNA that codes for the antigen, ionizable lipid such as INT-A002 (see page 32 of co-owned WO 2021/026647; Application No. PCT/CA2020/051098, which is incorporated herein by reference), DSPC, cholesterol and PEG-DMG were dissolved in ethanol. Prodrugs were dissolved in ethanol, isopropanol, DMSO or THF. The mRNA was dissolved in 10 mM citrate or 25 mM acetate buffer at pH 4.0. LNP were prepared by rapidly mixing the lipid components in ethanol (in molar ratio of 45/8.5/35/1.5/10 of INT-A002/DSPC/chol/PEG-DMG/prodrugs) with nucleic acids in aqueous buffer at a volumetric flow rate ratio of 1:3 (ethanol to aqueous, combined flow rate 28 ml/min) at room temperature. The product was then dialyzed against 1× phosphate-buffered saline (PBS) at pH 7.4 for 24 hours to remove residual ethanol and to raise the pH.
as §1

[5] = Table 6, LNP-mRNA with lipid conjugate

Structure (SMILES)	anti-Ova IgG1 levels in serum [1]	% Entrap (Dex/Calcitriol): Dex [2]	PdI [2]	Size [2] [nm]	T-cell proliferation (CFSE dilution) [3]	% mRNA Entrap. [4, 5] [%]	PDI [4, 5]	Z-Ave (nm) ([4]; Table 6, LNP-mRNA with lipid conjugate (mol %))
CCCCCC[C@H](C/C=C\CCCCCCCCOC(=O)CCC(=O)OCC(=O)[C@@]1(O)[C@H](C)C[C@H]2[C@@H]3CCC4=CC(=O)C=C[C@]4(C)[C@@]3(F)[C@@H](O)C[C@@]21C)OC(=O)CCCCC [Prodrug D034, 2-((8S,9R,10S,11S,13S,14S,16R,17R)-9-Fluoro-11,17-dihydroxy-10,13,16-trimethyl-3-oxo-6,7,8,9,10,11,12,13,14,15,16,17-dodecahydro-3H-cyclopenta[a]49ctadic49rene-17-yl)-2-oxoethyl ((R,Z)-12-(hexanoyloxy) 49ctadic-9-en-1-yl) succinate]	robustly suppressed	97/— %	0.043	50	suppressed	97	0.040	77
CCCCC/C=C\C/C=C\CCCCCCCC(=O)O[C@@H](C/C=C\CCCCCCCCOC(=O)CCC(=O)OCC(=O)[C@@]1(O)[C@H](C)C[C@H]2[C@@H]3CCC4=CC(=O)C=C[C@]4(C)[C@@]3(F)[C@@H](O)C[C@@]21C)CCCCCC [Prodrug D045, 2-((8S,9R,10S,11S,13S,14S,16R,17R)-9-fluoro-11,17-dihydroxy-10,13,16-trimethyl-3-oxo-6,7,8,9,10,11,12,13,14,15,16,17-dodecahydro-3H-cyclopenta[a]phenanthren-17-yl)-2-oxoethyl ((R,Z)-12-(linoleoyloxy)octadec-9-en-1-yl) succinate]		96/— %	0.051	47				
